Data taken from patent US20050181457A1, “FcyrIII signaling inhibitor assay” (priority 2002, published 2005).
At least one structure is not confirmed: it was looked up by name or label, or the drawing left a doubt.

System: FcγRIII signaling
Test: FcγRIII signaling inhibitor assay: IgG2a-complex stimulated DC18 C10 cells, hTNFα promoter-luciferase reporter
Format: cell-based, mouse
Settings: DC18 C10 cells stimulated with IgG2a complexes; inhibitor at its described IC50 concentration; FIG. 3

SMILES: C=CC[C@@H]1/C=C(\C)C[C@H](C)C[C@H](OC)[C@H]2O[C@@](O)(C(=O)C(=O)N3CCCC[C@H]3C(=O)O[C@H](/C(C)=C/[C@@H]3CC[C@@H](O)[C@H](OC)C3)[C@H](C)[C@@H](O)CC1=O)[C@H](C)C[C@@H]2OC [FK506]
- inhibition of IgG2a complexes-provoked luciferase induction (readout): Neither CsA (Sandimmune; data not shown), FK506 (FIG. 3A) or Wortmannin (a PI3-kinase inhibitor; FIG. 3B) inhibit the readout significantly

SMILES: COC[C@H]1OC(=O)c2coc3c2[C@@]1(C)C1=C(C3=O)[C@@H]2CCC(=O)[C@@]2(C)C[C@H]1OC(C)=O [Wortmannin]
- inhibition of IgG2a complexes-provoked luciferase induction (readout): Neither CsA (Sandimmune; data not shown), FK506 (FIG. 3A) or Wortmannin (a PI3-kinase inhibitor; FIG. 3B) inhibit the readout significantly
